{"source": "patent US11561178B2", "about": "“Artificial fluorescent image systems and methods” (Tempus Labs, Inc., priority 2020, dated 2023)", "system": "gastric cancer organoid line", "test": "large scale drug assay in tumor organoids (live/dead fluorescent staining)", "type": "cell-based, human", "details": "gastric cancer organoid line with amplification of the HER2 gene; 384-well plate; seven doses per treatment", "note": "For at least one compound, name, drawing or mass did not settle the structure.", "data": [{"smiles": "CN(C)C/C=C/C(=O)Nc1cc2c(Nc3ccc(F)c(Cl)c3)ncnc2cc1O[C@H]1CCOC1", "note": "[Afatinib]", "values": [{"measurement": "killing of the tumor organoid line (dead and/or viable cells counted after exposure to treatment)", "value": "kill this gastric cancer organoid line effectively"}]}]}
